Results are given in words; binding and its absence hold for the method and conditions named. Binding seen in cells or lysates may run through a third protein. A yes stands for co-enrichment or nearness to the bait. Other partners may have been found. No binding means not detected with the bait.
B1: TXNL1 (protein, UniProt O43396 1-289)
chain: MVGVKPVGSDPDFQPELSGAGSRLAVVKFTMRGCGPCLRIAPAFSSMSNKYPQAVFLEVDVHQCQGTAATNNISATPTFLFFRNKVRIDQYQGADAVGLEEKIKQHLENDPGSNEDTDIPKGYMDLMPFINKAGCECLNESDEHGFDNCLRKDTTFLESDCDEQLLITVAFNQPVKLYSMKFQGPDNGQGPKYVKIFINLPRSMDFEEAERSEPTQALELTEDDIKEDGIVPLRYVKFQNVNSVTIFVQSNQGEEETTRISYFTFIGTPVQATNMNDFKRVVGKKGESH
B2: TP53RK (protein, UniProt Q96S44 1-253)
chain: MAAARATTPADGEEPAPEAEALAAARERSSRFLSGLELVKQGAEARVFRGRFQGRAAVIKHRFPKGYRHPALEARLGRRRTVQEARALLRCRRAGISAPVVFFVDYASNCLYMEEIEGSVTVRDYIQSTMETEKTPQGLSNLAKTIGQVLARMHDEDLIHGDLTTSNMLLKPPLEQLNIVLIDFGLSFISALPEDKGVDLYVLEKAFLSTHPNTETVFEAFLKSYSTSSKKARPVLKKLDEVRLRGRKRSMVG
B3: Hsp70 chaperone HSPA13 (protein, UniProt P48723 23-471)
chain: QQYLPLPTPKVIGIDLGTTYCSVGVFFPGTGKVKVIPDENGHISIPSMVSFTDNDVYVGYESVELADSNPQNTIYDAKRFIGKIFTAEELEAEIGRYPFKVLNKNGMVEFSVTSNETITVSPEYVGSRLLLKLKEMAEAYLGMPVANAVISVPAEFDLKQRNSTIEAANLAGLKILRVINEPTAAAMAYGLHKADVFHVLVIDLGGGTLDVSLLNKQGGMFLTRAMSGNNKLGGQDFNQRLLQYLYKQIYQTYGFVPSRKEEIHRLRQAVEMVKLNLTLHQSAQLSVLLTVEEQDRKEPHSSDTELPKDKLSSADDHRVNSGFGRGLSDKKSGESQVLFETEISRKLFDTLNEDLFQKILVPIQQVLKEGHLEKTEIDEVVLVGGSTRIPRIRQVIQEFFGKDPNTSVDPDLAVVTGVAIQAGIDGGSWPLQVSALEIPNKHLQKTNFN
B4: UPF1 (protein, UniProt Q92900 1-1129)
chain: MSVEAYGPSSQTLTFLDTEEAELLGADTQGSEFEFTDFTLPSQTQTPPGGPGGPGGGGAGGPGGAGAGAAAGQLDAQVGPEGILQNGAVDDSVAKTSQLLAELNFEEDEEDTYYTKDLPIHACSYCGIHDPACVVYCNTSKKWFCNGRGNTSGSHIVNHLVRAKCKEVTLHKDGPLGETVLECYNCGCRNVFLLGFIPAKADSVVVLLCRQPCASQSSLKDINWDSSQWQPLIQDRCFLSWLVKIPSEQEQLRARQITAQQINKLEELWKENPSATLEDLEKPGVDEEPQHVLLRYEDAYQYQNIFGPLVKLEADYDKKLKESQTQDNITVRWDLGLNKKRIAYFTLPKTDSGNEDLVIIWLRDMRLMQGDEICLRYKGDLAPLWKGIGHVIKVPDNYGDEIAIELRSSVGAPVEVTHNFQVDFVWKSTSFDRMQSALKTFAVDETSVSGYIYHKLLGHEVEDVIIKCQLPKRFTAQGLPDLNHSQVYAVKTVLQRPLSLIQGPPGTGKTVTSATIVYHLARQGNGPVLVCAPSNIAVDQLTEKIHQTGLKVVRLCAKSREAIDSPVSFLALHNQIRNMDSMPELQKLQQLKDETGELSSADEKRYRALKRTAERELLMNADVICCTCVGAGDPRLAKMQFRSILIDESTQATEPECMVPVVLGAKQLILVGDHCQLGPVVMCKKAAKAGLSQSLFERLVVLGIRPIRLQVQYRMHPALSAFPSNIFYEGSLQNGVTAADRVKKGFDFQWPQPDKPMFFYVTQGQEEIASSGTSYLNRTEAANVEKITTKLLKAGAKPDQIGIITPYEGQRSYLVQYMQFSGSLHTKLYQEVEIASVDAFQGREKDFIILSCVRANEHQGIGFLNDPRRLNVALTRARYGVIIVGNPKALSKQPLWNHLLNYYKEQKVLVEGPLNNLRESLMQFSKPRKLVNTINPGARFMTTAMYDAREAIIPGSVYDRSSQGRPSSMYFQTHDQIGMISAGPSHVAAMNIPIPFNLVMPPMPPPGYFGQANGPAAGRGTPKGKTGRGGRQKNRFGLPGPSQTNLPNSQASQDVASQPFSQGALTQGYISMSQPSQMSQPGLSQPELSQDSYLGDEFKSQIDVALSQDSTYQGERAYQHGGVTGLSQY

Amino acid sequences for entries named in this document (tags omitted).
UniProt P61960: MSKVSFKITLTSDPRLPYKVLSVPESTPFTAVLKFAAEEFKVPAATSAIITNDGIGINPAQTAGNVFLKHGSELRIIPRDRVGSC
UniProt P47813: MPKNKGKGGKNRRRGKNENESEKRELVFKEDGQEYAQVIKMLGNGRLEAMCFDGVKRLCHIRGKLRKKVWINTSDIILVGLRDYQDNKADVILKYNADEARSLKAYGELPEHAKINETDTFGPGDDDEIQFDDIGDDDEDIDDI
UniProt Q9GZZ9: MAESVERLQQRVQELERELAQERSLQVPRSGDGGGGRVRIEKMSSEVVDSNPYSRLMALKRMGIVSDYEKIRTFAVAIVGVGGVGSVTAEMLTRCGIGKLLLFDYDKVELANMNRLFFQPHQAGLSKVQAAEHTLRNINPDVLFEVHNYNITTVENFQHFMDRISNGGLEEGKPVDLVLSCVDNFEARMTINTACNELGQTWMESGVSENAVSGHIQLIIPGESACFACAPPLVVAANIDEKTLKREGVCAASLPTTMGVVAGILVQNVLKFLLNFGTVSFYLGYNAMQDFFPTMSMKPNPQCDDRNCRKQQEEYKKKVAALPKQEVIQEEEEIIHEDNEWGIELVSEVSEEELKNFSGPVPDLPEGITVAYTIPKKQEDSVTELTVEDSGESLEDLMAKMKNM
UniProt Q9UGP8: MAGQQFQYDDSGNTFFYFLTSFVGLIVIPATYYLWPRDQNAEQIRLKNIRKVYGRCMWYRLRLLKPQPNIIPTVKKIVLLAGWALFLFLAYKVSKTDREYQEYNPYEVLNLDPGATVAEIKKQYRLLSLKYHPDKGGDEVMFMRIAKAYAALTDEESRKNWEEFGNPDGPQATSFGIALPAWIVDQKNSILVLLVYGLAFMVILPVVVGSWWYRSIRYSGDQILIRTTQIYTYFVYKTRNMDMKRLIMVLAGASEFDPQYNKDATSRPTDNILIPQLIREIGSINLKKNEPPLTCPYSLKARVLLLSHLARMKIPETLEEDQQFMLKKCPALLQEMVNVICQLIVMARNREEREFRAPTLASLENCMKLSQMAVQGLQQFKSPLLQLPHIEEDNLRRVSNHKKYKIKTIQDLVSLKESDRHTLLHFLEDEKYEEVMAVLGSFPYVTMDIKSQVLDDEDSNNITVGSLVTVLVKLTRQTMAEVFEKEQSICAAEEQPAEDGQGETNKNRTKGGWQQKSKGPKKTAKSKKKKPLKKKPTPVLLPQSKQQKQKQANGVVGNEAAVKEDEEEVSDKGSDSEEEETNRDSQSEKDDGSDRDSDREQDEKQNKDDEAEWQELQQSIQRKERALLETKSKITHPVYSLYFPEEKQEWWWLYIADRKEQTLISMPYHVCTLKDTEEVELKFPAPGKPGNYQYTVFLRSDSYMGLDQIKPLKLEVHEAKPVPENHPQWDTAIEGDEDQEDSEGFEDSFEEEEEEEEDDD

Each molecule was assayed against N-terminally StrepII-tagged UFM1 (ubiquitin-fold modifier 1), wildtype (human) (UniProt P61960) (assay: affinity purification with mass spectrometry).
For EIF1AX (from UniProt P47813 1-144), the binding was “binds”.
In the case of “UBA5, the E1 enzyme of UFM1 (from UniProt Q9GZZ9 1-404)”, the binding is reported as “binds”.
In the case of “Hsp40 chaperone SEC63 (from UniProt Q9UGP8 1-760)”, the binding is reported as “no binding”.
B1 was tested, and the binding was “binds”.
B2 was tested, and the binding was “binds”.
With B3 the binding was “no binding”.
B4 was tested, and the binding was “binds”.
